# Laboratory results taken from PubChem BioAssay AID1439 (NMMLSC, 2008).
# By UniProt entry, the sequences of proteins in these tests, tags left out.
# UniProt P09471, whole entry, looked up: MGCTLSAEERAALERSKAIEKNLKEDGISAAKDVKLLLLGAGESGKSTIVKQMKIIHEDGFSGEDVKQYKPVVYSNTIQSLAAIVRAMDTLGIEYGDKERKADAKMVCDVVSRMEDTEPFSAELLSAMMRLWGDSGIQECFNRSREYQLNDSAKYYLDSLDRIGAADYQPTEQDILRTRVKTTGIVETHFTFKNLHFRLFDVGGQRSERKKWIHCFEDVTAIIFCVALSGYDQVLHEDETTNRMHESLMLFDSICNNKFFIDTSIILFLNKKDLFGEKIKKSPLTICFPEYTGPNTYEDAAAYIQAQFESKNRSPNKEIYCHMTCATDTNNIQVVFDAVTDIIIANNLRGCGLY
# Screen size: about 220,000 compounds; about 770 (0.35%) were called active. Inconclusive results, whose numbers are uncertain, are shown with a selection of clear calls. Rule as the data show it: active = binding response below about 49% or above about 150%; inconclusive = no clear call, values can overlap the other calls; inactive = in between.
# Molecular target: Guanine nucleotide-binding protein G(o) subunit alpha (Homo sapiens) (UniProt P09471)
# Assay: RGS7-Galphao binding modulators, primary screen, biochemical, multiplexed bead flow cytometry (AID 1439);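 also: fluorescent Galphao held in activated GDP-AlF4 state binding bead-coupled RGS7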
# Details: at 10 µM, actives lie on both sides
row,Compound,binding response (% of control)
1,Cc1cccn2c(=O)c(C=O)c(NCc3ccccc3)nc12,inconclusive: 80.3%
2,C/C(=N\NC(=O)c1ccc(NS(=O)(=O)c2cccs2)cc1)c1cccs1,inconclusive: 105%
3,N/C(=N\S(=O)(=O)c1cc(C(F)(F)F)cc(C(F)(F)F)c1)c1ccccc1,inconclusive: 129%
4,COc1ccc(/C=N/n2cncn2)cc1Cn1cc([N+](=O)[O-])cn1,inconclusive: 78.6%
5,Nc1nnc(CSCc2cccc(Br)c2)s1,inconclusive: 84.2%
6,CCOC(=O)c1c(C)nc(C)c2c(=O)oc3ccccc3c12,inactive: 98.1%
7,O=C(Nc1nnc(CCN2CCCCC2)s1)c1ccc(Cl)cc1Cl,inconclusive: -746%
8,COC(=O)C1=C(C)NC(=O)NC1c1ccc(-c2ccccc2Cl)o1 (configuration not stated),inconclusive: 94.4%
9,CC1=CC(=O)N(c2ccn(C)n2)C1=O,inconclusive: 102%
10,CC1(C)CN=C(N(Cc2ccccc2)C(=O)Nc2ccccc2)S1,inactive: 99.3%
11,Cc1cc(C(=O)Nc2ccc3[nH]ccc3c2)no1,inconclusive: 266%
12,COc1ccc(C(=O)NC(=S)Nc2ccc(N3CCCC3)cc2)cc1,inconclusive: 84.1%
13,O=C(O)c1cc(N/N=C/c2ccc3c(c2)OCO3)ccc1Cl,inconclusive: 101%
14,COC(=O)c1cc(C(=O)OC)cc(-n2c(C)cc(C=O)c2C)c1,inconclusive: 108%
15,Cn1ncc2c(O/N=C(\N)c3ccc(C(C)(C)C)cc3)ncnc21,inconclusive: 93.5%
16,O=C(Oc1ccc(NC(=O)c2cc3c(cc2Br)OCO3)cc1)c1ccccc1,inconclusive: 103%
17,CCOC(=O)c1ccc(S(=O)(=O)N(CCO)Cc2cc3cc(OC)c(OC)cc3[nH]c2=O)cc1,inconclusive: 92.7%
18,CCOc1ccc(NC(=O)CN(C)S(=O)(=O)c2ccc3c(c2)CCC(=O)N3)cc1,inconclusive: 108%
19,COc1ccc2nc(NC(=O)NC3CCCCC3)sc2c1,inconclusive: 92.2%
20,COc1ccc(/C=C/c2nnc(NC(C)=O)s2)cc1,inconclusive: 596%
21,Cc1ccc(N(C(=O)Nc2ccccc2)C2=NCCC2)cc1,inconclusive: 117%
22,C=CCNC(=S)N1CCN(CCNC2=CC(=O)CC(C)(C)C2)CC1,inconclusive: 111%
23,Cc1cc(O)c(C(C)C)cc1N=Cc1cc([N+](=O)[O-])ccc1O,inconclusive: 134%

row,Compound,binding response (% of control)
1,NS(=O)(=O)c1cc(C(=O)OCC(=O)c2ccccc2)c(Cl)cc1Cl,inactive: 105%
2,CN=C1SC(CC(=O)Nc2ccc(F)cc2F)C(=O)N1/N=C(\C)c1cccc(OCC(=O)O)c1 (configuration not stated),inconclusive: 80.8%
3,CC#CC#Cc1cccc(=O)o1,inconclusive: 81.8%
4,COc1ccc(C(NC(=O)C2CCCCC2)c2c(O)ccc3ccccc23)cc1 (configuration not stated),inactive: 99.4%
5,CCn1nc(NC(=O)c2cccs2)c2cc3ccccc3nc21,inactive: 105%
6,CC(O)(c1ccccc1)C(c1ccccc1)C1CCCCN1 (configuration not stated),inconclusive: 89.3%
7,CC1CCN(C(=O)COc2cccc3c2CCN(C)C3=O)CC1,inactive: 97.7%
8,CC(C)(C)NC(=S)N/N=C\c1ccc(-c2ccc([N+](=O)[O-])cc2)o1,inconclusive: 125%
9,COc1nc(-c2cccc([N+](=O)[O-])c2)nc2ccccc12,inconclusive: 52.5%
10,CCc1cc(-c2nc(N)ncc2-c2ccc(Br)cc2)c(O)cc1OC,inconclusive: 9.01%
11,CC1CC(OC(=O)CN2CCCCC2)CC(C)(C)C1 (configuration not stated),inconclusive: 212%
12,CSc1nc2ccc(S(=O)(=O)N3CCOCC3)cc2s1,inactive: 101%
13,CCn1c(SCC(=O)Nc2ccc(C)cc2)nc(O)cc1=O,inconclusive: 99.2%
14,NC(=O)CN(N=Nc1cccc([N+](=O)[O-])c1)c1cccc([N+](=O)[O-])c1,inconclusive: 94.2%
15,COC(=O)c1cnc(Nc2cccc(C(F)(F)F)c2)c([N+](=O)[O-])c1,inconclusive: 31.4%
16,c1ccc(OCCN2CCN(Cc3nc(-c4ccc5c(c4)OCO5)no3)CC2)cc1,inactive: 94.3%
17,Cc1ccc(-c2cc(Cc3ccc(F)cc3)c(=O)[nH]n2)cc1,inconclusive: 99.2%
18,CN1C(=O)NC(c2ccc(O)cc2)C2=C1CN(c1ccccc1)C2=O (configuration not stated),inconclusive: 234%
19,CCN(CC)CCN1C(=O)c2ccccc2NC1c1ccc(F)cc1 (configuration not stated),inactive: 99.8%
20,O=C1NC2(CCCC2)C(=O)N1Cc1cc(=O)n2ccsc2n1,inconclusive: 247%
21,O=C(Nc1cc(Cl)cc(Cl)c1)N1CCCC1,inconclusive: 102%
22,CCc1ccc(NC(=O)c2c(Cl)nc(C)c(Cl)c2C)cc1,inactive: 97.6%
23,NC(=Nc1ccc(Cl)cc1)c1ccccc1,inconclusive: 122%

row,Compound,binding response (% of control)
1,CC(=O)c1cc2c(C)c(C(=O)c3ccccc3)oc2cc1O,inactive: 101%
2,O=C(OCc1cccc([N+](=O)[O-])c1)c1ccc2ccccc2n1,inactive: 102%
3,CC1(C)Cc2c(sc(NC(=O)COc3cccc4ccccc34)c2C#N)C(C)(C)N1,inconclusive: -361%
4,C/C=C/C(=O)Nc1cccc(C2=NOC3(C2)C[C@H](C(N)=O)N(C(=O)c2ccccc2C(=O)c2ccccc2)C3)c1 (some centres not stated),inconclusive: 83.9%
5,O=C(CN1CCCCC1)N1N=C(c2cccs2)CC1c1cccs1 (configuration not stated),inconclusive: 112%
6,O=C(O)C1CC=CCC1C(=O)NNc1ccccc1 (configuration not stated),inactive: 101%
7,Cc1cc(-c2nc(C)c(C(=O)NNS(=O)(=O)c3cccc(C(F)(F)F)c3)s2)no1,inconclusive: 98.5%
8,CCCCC(=O)Nc1cc(Cl)ccc1C(=O)O,inconclusive: 98.7%
9,COc1cccc(/C=N/n2c(-c3cc(C)[nH]n3)n[nH]c2=S)c1OC,inconclusive: 227%
10,CCCCN1C(=O)/C(=C/C=C2\Oc3ccccc3N2CC)SC1=S,inactive: 108%
11,COc1cccc(C(=O)N=c2sc3cc(S(C)(=O)=O)ccc3n2C)c1,inconclusive: 71.4%
12,COc1ccc(N2CCN(CC(=O)c3c(C)n(C)c4ccc(OC)cc34)CC2)cc1,inconclusive: 106%
13,CN(C)C(CNC(=S)Nc1cccc(Cl)c1)c1cccnc1 (configuration not stated),inactive: 105%
14,CCOC(=O)Cc1cc(=O)[nH]c(/N=C(\N)Nc2ccc(C)cc2C)n1,inactive: 102%
15,Cc1cccc(CNc2ccc(C(CC(N)=O)NC(=O)c3cccc(Br)c3)cc2[N+](=O)[O-])c1 (configuration not stated),inconclusive: 99.7%
16,CC(C)NC(=O)NNC(=O)Cn1nnc(-c2cccc(Cl)c2Cl)n1,inconclusive: 38.9%
17,O=C(N/N=C/c1ccc(O)c([N+](=O)[O-])c1)c1ccncc1,inconclusive: 102%
18,C=CCCN(C(C(=O)OC)C(C)C)S(=O)(=O)c1ccccc1Br (configuration not stated),inconclusive: 41.5%
19,COc1c(CC=C(C)C)cc(C2CC(=O)c3c(O)cc(O)cc3O2)cc1CC=C(C)C (configuration not stated),inconclusive: 88.7%
20,CC(=O)NCC1COc2ccccc2O1 (configuration not stated),inconclusive: 84.3%
21,c1ccc(CN=C2NN=C(c3ccccc3)CS2)cc1,inconclusive: 86.6%
22,CN1CCN(c2ccccc2NC(=O)c2ccc(F)cc2)CC1,inconclusive: 112%
23,COc1ccc(NC(=O)N2CCC(CO)(CC3CCCCO3)CC2)c(OC)c1 (configuration not stated),inconclusive: 97.9%

# 5 of the compounds above, as tab-separated lines:
row	Compound	binding response (% of control)
5	Nc1nnc(CSCc2cccc(Br)c2)s1	inconclusive: 84.2%
15	Cn1ncc2c(O/N=C(\N)c3ccc(C(C)(C)C)cc3)ncnc21	inconclusive: 93.5%
8	CC(C)(C)NC(=S)N/N=C\c1ccc(-c2ccc([N+](=O)[O-])cc2)o1	inconclusive: 125%
18	C=CCCN(C(C(=O)OC)C(C)C)S(=O)(=O)c1ccccc1Br (configuration not stated)	inconclusive: 41.5%
23	COc1ccc(NC(=O)N2CCC(CO)(CC3CCCCO3)CC2)c(OC)c1 (configuration not stated)	inconclusive: 97.9%

# More structures:

row,Compound,binding response (% of control)
1,CCOC(=O)c1cc(-c2ccc(Cl)cc2)nc2c1c(=O)[nH]c(=O)n2CCOC,inactive: 102%
2,COc1ccc(NC(=O)CN2CC(C)OC(C)C2)cc1Cl (configuration not stated),inconclusive: 105%
3,COC(=O)C1=C(C)NC(C)=C(C(=O)OC)C1c1ccc(-c2cccc(Cl)c2Cl)o1,inactive: 105%
4,CCOc1ccc2[nH]c(=S)[nH]c2c1,inactive: 105%
5,COc1ccccc1NC(=O)C1=C(C)NC(=O)NC1c1cc(C)cs1 (configuration not stated),active: 189% [activator]
6,CC(C)COc1ccc(C(=O)NC(Cc2c[nH]c3ccccc23)C(=O)NN)cc1 (configuration not stated),inconclusive: 118%
7,CN(C)c1ccc(/C=N/NC(=O)C(O)c2ccc(Br)cc2)cc1 (configuration not stated),inactive: 101%
8,CC(=O)Nc1cccc(NC(=O)CSc2ncc(-c3ccccc3)[nH]2)c1,inconclusive: 89.6%
9,O=C(Nc1cccc(-c2ccccc2)c1)N1CCN(C(=O)Nc2cccc(-c3ccccc3)c2)CC1,inconclusive: 67.1%
10,Cn1nc(C(F)(F)F)c(C#N)c1N1CCN(c2ccccn2)CC1,inconclusive: 121%
11,CC(C)(C)NC(=O)C(=O)NNC(=O)c1ccccc1Br,inactive: 113%
12,COC(=O)Nc1csc2c1NC(=O)CCCC2,inconclusive: 331%
13,Cc1ccc(S(=O)(=O)N/N=C/c2ccc(OCC(=O)N3CCOCC3)cc2)cc1,inconclusive: 149%
14,Cc1nnsc1-c1onc(C)c1C(=O)O/N=C/c1ccc(Cl)cc1,inconclusive: 110%
15,CCC(C)(C)C1CCC2(CC1)NC(=S)N(c1ccccc1)N2 (configuration not stated),inconclusive: 88.6%
16,O=C(O)CCCC(=O)Nc1cccc2cccnc12,active: 151% [activator]
17,Cc1cc(C)cc(NC(=O)Nc2cccc(S(N)(=O)=O)c2)c1,inconclusive: 116%
18,N#CC(c1ccccc1)N(CCCCl)C(=O)c1ccc(Br)cc1 (configuration not stated),inactive: 100%
19,O=C(CN1CCCCC1)N1c2ccccc2Sc2ccc(C(F)(F)F)cc21,active: 27.5%
20,O=Cc1cc2cc3c(cc2nc1Cl)OCCO3,inconclusive: 100%
21,Oc1ccc2ccccc2c1N=Nc1nccs1,inconclusive: 81.3%
22,CCCCNC(=S)N1CCN(c2ccc(C(C)=O)cc2)CC1,inconclusive: 102%
23,Cc1ccc2[nH]c(=O)c(CN(CC3COCCO3)C(=O)Nc3ccccc3C)cc2c1 (configuration not stated),inactive: 102%
